Measured values reported in publication PMC10256765.
No constants are given. Whether binding was seen depends on the method and setting. In cells and extracts the contact can be indirect. These calls come from enrichment with a bait or labelling near it, and not all partners need be listed.

Target: wild-type nsP3 of M1 virus with a 3×flag tag (alphavirus M1)
Assay: affinity purification with mass spectrometry; lysate (2 mg/mL) of HCT-116 cells stably expressing 3×flag nsP3 WT or M358L; anti-FLAG antibody or normal mouse IgG overnight at 4 °C, Protein A/G beads; precipitate analysed by mass spectrometry

B1: G3BP-2 (protein, UniProt Q9UN86 1-482)
chain: MVMEKPSPLLVGREFVRQYYTLLNKAPEYLHRFYGRNSSYVHGGVDASGKPQEAVYGQNDIHHKVLSLNFSECHTKIRHVDAHATLSDGVVVQVMGLLSNSGQPERKFMQTFVLAPEGSVPNKFYVHNDMFRYEDEVFGDSEPELDEESEDEVEEEQEERQPSPEPVQENANSGYYEAHPVTNGIEEPLEESSHEPEPEPESETKTEELKPQVEEKNLEELEEKSTTPPPAEPVSLPQEPPKAFSWASVTSKNLPPSGTVSSSGIPPHVKAPVSQPRVEAKPEVQSQPPRVREQRPRERPGFPPRGPRPGRGDMEQNDSDNRRIIRYPDSHQLFVGNLPHDIDENELKEFFMSFGNVVELRINTKGVGGKLPNFGFVVFDDSEPVQRILIAKPIMFRGEVRLNVEEKKTRAARERETRGGGDDRRDIRRNDRGPGGPRGIVGGGMMRDRDGRGPPPRGGMAQKLGSGRGTGQMEGRFTGQRR
  binding: binds
